Measurements from article PMC10318043.
These are yes or no findings as the source states them, for the method shown. Binding seen in cells or lysates may run through a third protein. Some results given as binding are weak or reduced against the parent protein; the word gives no strength. For part of these data: Sequences can lack the tags named with a protein.

Sequences of proteins named here, by UniProt entry; tags and fusion partners are left off.
UniProt P49841: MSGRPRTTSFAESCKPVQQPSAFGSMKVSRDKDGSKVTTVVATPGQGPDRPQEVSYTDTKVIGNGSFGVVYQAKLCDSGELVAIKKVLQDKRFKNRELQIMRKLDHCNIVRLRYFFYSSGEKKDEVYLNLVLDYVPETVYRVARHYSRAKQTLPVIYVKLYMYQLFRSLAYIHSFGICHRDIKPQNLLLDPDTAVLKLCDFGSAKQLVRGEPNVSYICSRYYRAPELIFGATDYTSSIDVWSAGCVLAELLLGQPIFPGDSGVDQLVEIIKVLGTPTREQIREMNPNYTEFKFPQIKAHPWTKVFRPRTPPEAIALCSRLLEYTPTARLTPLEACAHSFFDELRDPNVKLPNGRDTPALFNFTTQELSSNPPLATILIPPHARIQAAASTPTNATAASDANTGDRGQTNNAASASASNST
UniProt Q16584: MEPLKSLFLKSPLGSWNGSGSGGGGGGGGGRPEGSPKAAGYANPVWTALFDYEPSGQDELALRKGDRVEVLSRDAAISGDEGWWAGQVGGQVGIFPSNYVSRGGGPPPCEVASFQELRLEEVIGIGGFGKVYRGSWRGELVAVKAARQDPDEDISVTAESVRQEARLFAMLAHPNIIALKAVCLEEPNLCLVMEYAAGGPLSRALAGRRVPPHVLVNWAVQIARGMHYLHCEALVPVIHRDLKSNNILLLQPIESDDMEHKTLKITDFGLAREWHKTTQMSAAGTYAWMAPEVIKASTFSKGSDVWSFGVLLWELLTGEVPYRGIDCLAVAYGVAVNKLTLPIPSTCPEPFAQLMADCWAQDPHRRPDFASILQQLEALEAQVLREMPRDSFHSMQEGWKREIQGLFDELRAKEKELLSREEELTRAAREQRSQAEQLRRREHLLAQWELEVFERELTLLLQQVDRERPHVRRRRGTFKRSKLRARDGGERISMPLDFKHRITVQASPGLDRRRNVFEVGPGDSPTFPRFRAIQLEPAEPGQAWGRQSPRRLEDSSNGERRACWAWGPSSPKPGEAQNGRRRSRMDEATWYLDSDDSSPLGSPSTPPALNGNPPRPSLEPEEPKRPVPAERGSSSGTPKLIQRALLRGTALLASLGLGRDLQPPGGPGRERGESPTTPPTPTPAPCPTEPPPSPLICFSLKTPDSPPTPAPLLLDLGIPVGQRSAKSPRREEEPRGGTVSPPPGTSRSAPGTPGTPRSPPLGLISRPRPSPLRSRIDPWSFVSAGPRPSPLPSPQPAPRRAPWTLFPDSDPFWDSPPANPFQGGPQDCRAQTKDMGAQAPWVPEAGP
UniProt P45983: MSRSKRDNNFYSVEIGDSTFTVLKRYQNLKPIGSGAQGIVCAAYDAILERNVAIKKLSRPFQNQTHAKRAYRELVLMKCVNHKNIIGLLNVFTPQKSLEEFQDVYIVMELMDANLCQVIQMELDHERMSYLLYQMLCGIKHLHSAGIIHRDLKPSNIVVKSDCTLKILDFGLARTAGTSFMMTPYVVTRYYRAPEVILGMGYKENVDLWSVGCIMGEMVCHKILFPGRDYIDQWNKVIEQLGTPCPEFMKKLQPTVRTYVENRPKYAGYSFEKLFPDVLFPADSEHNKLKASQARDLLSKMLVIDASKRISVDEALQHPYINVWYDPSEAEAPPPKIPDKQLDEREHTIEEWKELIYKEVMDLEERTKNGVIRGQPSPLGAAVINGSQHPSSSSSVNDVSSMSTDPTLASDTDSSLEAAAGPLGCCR

Columns and labels:
[1] = target: Flag-GSK3β (human) (human) (UniProt P49841); assay: co-IP; Supplementary Fig. 3a, b; tags and direction of the precipitation not shown
Flag-MLK3 [2] = target: Flag-MLK3 (UniProt Q16584); assay: as above
[3] = target: Flag-GSK3β (human) (human) (UniProt P49841); assay: co-IP; HEK293 cells cotransfected with HA-hPellino3 and Flag-tagged kinase plasmids; lysates immunoprecipitated with anti-Flag, immunoblotted with anti-HA and anti-Flag
Flag-JNK1 = Flag-JNK1 (UniProt P45983); assay: as above
Flag-JNK2 = Flag-JNK2 (UniProt P45984); assay: as above
Flag-MLK3 [4] = target: Flag-MLK3 (UniProt Q16584); assay: as above

binding [1]	binding (Flag-MLK3 [2])	binding [3]	binding (Flag-JNK1)	binding (Flag-JNK2)	binding (Flag-MLK3 [4])	Binder
binds	binds					human Pellino3b (protein, UniProt Q8N2H9-2 1-445) MVLEGNPEVGSPRTSDLQHRGNKGSCVLSSPGEDAQPGEEPIKYGELIVLGYNGCLASGDKGRRRSRLALSRRSHANGVKPDVMHHISTPLVSKALSNRGQHSISYTLSRSHSVIVEYTHDSDTDMFQIGRSTENMIDFVVTDTSPGGGAAEGPSAQSTISRYACRILCDRRPPYTARIYAAGFDASSNIFLGERAAKWRTPDGLMDGLTTNGVLVMHPAGGFSEDSAPGVWREISVCGNVYTLRDSRSAQQRGKLVENESNVLQDGSLIDLCGATLLWRTPAGLLRAPTLKQLEAQRQEANAARPQCPVGLSTLAFPSPARGRTAPDKQQPWVYVRCGHVHGYHGWGCRRERGPQERECPLCRLVGPYVPLWLGQEAGLCLDPGPPSHAFAPCGHVCSEKTARYWAQTPLPHGTHAFHAACPFCGAWLTGEHGCVRLIFQGPLD
		binds	binds weakly	binds weakly	binds	HA-tagged human Pellino3a (protein, UniProt Q8N2H9 1-469) MVLEGNPEVGSPRTSDLQHRGNKGSCVLSSPGEDAQPGEEPIKYGELIVLGCCEEGGEETEAQRGEVTGPRAHSCYNGCLASGDKGRRRSRLALSRRSHANGVKPDVMHHISTPLVSKALSNRGQHSISYTLSRSHSVIVEYTHDSDTDMFQIGRSTENMIDFVVTDTSPGGGAAEGPSAQSTISRYACRILCDRRPPYTARIYAAGFDASSNIFLGERAAKWRTPDGLMDGLTTNGVLVMHPAGGFSEDSAPGVWREISVCGNVYTLRDSRSAQQRGKLVENESNVLQDGSLIDLCGATLLWRTPAGLLRAPTLKQLEAQRQEANAARPQCPVGLSTLAFPSPARGRTAPDKQQPWVYVRCGHVHGYHGWGCRRERGPQERECPLCRLVGPYVPLWLGQEAGLCLDPGPPSHAFAPCGHVCSEKTARYWAQTPLPHGTHAFHAACPFCGAWLTGEHGCVRLIFQGPLD
